Target: Voltage-dependent L-type calcium channel subunit alpha-1C (Cavia porcellus, UniProt O35505)
Assay: Inhibition of Calcium channel in Cavia porcellus albino (guinea pig) ileocecal SMC assessed as inhibition of 80 mM KCl-induced contraction

Chains of the proteins cited; added tags and fusions are not shown.
UniProt O35505, whole entry: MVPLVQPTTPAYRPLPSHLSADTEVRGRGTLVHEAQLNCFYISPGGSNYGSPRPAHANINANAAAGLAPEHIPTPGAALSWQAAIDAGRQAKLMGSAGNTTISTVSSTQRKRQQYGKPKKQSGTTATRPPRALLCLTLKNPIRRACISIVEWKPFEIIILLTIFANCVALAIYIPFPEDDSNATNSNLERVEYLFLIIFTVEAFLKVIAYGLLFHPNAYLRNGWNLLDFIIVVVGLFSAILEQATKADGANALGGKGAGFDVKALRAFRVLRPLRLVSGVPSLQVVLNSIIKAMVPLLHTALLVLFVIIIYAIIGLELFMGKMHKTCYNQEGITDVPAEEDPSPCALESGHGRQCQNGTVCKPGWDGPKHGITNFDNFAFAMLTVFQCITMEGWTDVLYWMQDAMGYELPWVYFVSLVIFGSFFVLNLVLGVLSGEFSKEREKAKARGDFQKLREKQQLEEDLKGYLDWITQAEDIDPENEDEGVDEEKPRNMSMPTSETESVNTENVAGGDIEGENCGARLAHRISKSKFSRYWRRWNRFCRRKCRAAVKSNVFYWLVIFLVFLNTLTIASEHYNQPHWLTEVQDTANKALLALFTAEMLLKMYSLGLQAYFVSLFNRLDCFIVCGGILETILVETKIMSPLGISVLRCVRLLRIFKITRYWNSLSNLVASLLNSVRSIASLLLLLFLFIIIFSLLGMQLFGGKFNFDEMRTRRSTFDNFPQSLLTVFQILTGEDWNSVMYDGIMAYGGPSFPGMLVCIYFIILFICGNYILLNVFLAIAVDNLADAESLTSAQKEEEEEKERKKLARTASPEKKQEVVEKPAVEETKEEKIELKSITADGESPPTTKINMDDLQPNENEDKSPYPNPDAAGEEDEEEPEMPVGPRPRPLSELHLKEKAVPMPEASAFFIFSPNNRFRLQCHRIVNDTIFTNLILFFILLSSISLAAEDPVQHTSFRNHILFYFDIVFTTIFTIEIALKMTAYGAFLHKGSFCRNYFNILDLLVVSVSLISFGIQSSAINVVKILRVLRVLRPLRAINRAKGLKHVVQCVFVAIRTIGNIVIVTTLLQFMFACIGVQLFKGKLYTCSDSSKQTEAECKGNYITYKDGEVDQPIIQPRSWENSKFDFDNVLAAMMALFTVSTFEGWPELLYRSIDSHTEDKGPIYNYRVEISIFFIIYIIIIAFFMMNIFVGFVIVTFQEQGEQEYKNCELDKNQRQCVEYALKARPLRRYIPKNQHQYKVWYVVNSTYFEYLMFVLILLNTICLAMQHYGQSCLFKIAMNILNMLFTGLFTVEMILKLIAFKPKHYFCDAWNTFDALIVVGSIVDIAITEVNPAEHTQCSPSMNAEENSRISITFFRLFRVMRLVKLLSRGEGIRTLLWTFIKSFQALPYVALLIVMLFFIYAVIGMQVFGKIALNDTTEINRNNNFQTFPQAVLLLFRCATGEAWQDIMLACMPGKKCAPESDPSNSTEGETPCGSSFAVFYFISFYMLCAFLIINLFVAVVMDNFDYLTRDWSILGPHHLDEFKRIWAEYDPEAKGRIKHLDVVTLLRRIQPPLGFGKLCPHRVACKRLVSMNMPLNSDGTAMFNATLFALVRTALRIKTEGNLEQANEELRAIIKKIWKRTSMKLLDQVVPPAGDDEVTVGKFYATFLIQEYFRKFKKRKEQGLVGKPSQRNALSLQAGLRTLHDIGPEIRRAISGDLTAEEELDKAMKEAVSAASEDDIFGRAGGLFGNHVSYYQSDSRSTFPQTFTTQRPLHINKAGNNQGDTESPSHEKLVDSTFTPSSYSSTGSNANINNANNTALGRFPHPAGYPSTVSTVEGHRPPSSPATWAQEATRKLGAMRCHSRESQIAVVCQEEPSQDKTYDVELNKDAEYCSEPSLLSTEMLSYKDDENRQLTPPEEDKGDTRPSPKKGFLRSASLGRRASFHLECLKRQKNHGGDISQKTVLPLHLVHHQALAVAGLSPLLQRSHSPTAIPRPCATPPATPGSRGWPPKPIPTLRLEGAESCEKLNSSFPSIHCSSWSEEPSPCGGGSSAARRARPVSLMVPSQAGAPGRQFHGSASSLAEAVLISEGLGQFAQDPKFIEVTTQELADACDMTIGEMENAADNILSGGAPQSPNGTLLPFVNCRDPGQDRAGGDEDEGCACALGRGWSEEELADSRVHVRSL

## COC(=O)C1=C(C)NC(C)=C(C(=O)OC)C1c1ccccc1[N+](=O)[O-] [NIFEDIPINE]
  IC50: 69 nM

Source: ChEMBL document CHEMBL3046466, “Synthesis and calcium channel antagonist activity of novel 1,4-dihydropyridine derivatives possessing 4-pyrone moieties” (Med Chem Res, 2012)
